Assay results reported in US7105647.
No constants are given. Whether binding was seen depends on the method and setting. For some assays here: Binding seen in cells or lysates may run through a third protein. Some results given as binding are weak or reduced against the parent protein; the word gives no strength.

The chains behind the UniProt entries cited, without tags or fusion partners. Where a name states a change or a piece, a line headed by the entry shows the natural chain unless it says otherwise.
UniProt P35869: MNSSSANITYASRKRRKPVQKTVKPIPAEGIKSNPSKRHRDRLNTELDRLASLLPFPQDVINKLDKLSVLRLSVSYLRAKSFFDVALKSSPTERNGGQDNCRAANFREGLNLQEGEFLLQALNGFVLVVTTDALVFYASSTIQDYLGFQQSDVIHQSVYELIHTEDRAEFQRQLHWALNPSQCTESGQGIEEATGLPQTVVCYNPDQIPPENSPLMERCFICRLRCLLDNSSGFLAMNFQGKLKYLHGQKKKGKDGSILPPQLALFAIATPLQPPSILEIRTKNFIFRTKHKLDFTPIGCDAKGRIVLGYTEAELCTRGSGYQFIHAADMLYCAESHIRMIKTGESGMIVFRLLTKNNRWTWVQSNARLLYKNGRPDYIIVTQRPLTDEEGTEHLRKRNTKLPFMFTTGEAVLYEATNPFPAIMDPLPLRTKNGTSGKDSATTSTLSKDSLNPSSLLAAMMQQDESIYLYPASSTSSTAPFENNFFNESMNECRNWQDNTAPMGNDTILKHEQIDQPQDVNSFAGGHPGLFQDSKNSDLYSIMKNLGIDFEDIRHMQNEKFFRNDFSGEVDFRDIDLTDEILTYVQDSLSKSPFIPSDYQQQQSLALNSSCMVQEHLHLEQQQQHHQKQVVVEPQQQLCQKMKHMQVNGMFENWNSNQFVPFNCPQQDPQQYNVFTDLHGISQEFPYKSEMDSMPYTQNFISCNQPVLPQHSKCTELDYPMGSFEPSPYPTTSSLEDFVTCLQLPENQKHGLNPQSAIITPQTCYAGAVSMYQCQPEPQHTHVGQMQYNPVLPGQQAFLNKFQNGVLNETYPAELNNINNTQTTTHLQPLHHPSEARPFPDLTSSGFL
UniProt P27540: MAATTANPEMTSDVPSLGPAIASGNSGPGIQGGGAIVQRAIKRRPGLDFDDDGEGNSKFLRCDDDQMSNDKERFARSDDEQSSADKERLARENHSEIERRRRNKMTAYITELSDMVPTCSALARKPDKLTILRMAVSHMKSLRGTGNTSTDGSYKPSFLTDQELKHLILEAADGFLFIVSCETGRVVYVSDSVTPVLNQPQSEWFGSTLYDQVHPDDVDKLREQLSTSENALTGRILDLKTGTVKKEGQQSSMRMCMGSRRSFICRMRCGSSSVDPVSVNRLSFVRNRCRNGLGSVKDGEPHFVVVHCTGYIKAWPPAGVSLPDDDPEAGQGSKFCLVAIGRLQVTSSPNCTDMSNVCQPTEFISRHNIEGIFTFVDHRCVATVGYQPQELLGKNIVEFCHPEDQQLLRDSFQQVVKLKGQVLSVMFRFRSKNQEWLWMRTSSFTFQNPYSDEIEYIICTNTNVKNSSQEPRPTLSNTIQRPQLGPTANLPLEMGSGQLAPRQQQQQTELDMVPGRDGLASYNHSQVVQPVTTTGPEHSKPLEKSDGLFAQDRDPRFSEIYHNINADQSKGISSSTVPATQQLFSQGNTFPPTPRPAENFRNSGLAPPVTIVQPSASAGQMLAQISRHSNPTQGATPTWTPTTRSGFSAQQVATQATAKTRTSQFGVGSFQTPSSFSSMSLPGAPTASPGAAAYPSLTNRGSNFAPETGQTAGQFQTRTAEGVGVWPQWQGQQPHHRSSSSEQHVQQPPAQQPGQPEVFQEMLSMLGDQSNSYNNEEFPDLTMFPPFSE
UniProt O00327: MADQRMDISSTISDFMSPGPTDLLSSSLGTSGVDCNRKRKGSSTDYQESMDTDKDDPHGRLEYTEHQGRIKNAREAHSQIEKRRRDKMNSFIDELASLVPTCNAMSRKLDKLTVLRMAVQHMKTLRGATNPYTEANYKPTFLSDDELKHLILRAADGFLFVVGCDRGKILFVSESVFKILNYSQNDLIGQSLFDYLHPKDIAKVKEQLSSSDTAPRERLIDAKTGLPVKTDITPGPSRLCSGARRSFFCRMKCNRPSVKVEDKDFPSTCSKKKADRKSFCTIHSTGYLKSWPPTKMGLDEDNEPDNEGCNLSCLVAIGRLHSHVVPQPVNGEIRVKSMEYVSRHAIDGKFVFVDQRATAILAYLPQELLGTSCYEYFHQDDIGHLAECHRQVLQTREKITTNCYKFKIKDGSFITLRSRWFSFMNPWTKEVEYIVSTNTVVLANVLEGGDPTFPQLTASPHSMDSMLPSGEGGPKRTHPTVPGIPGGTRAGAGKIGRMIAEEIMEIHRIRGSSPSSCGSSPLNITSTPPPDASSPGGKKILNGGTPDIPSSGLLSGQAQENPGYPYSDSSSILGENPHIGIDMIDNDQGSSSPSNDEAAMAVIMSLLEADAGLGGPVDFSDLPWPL
UniProt Q0VBL6: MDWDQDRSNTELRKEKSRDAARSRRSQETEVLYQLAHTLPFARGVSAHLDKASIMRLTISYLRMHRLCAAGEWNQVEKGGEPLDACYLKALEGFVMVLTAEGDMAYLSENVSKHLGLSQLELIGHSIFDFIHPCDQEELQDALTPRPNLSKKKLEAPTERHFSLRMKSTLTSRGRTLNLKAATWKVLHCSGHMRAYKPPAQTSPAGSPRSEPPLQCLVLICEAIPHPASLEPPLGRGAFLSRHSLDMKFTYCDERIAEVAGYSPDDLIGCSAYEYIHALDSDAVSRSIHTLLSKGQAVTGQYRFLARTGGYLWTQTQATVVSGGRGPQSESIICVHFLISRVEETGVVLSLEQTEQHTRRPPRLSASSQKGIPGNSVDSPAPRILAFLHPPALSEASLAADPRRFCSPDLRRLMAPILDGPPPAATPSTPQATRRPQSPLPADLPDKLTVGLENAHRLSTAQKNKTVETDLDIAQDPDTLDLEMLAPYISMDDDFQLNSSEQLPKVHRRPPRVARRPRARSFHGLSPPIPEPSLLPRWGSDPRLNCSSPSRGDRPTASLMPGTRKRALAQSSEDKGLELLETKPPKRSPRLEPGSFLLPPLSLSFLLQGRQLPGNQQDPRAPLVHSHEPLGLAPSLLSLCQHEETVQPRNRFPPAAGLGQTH

Key:
LexAMOP1 (human) [1] = experiment: yeast interaction trap (discussion)
LexAMOP2 (human) [2] = experiment: yeast interaction trap (discussion)
LexAMOP1 (human) [3] = experiment: yeast interaction trap (mating), X-Gal overlay
LexAMOP2 (human) [4] = experiment: yeast interaction trap (mating), X-Gal overlay
[5] = molecular target: human aryl hydrocarbon receptor (AHR), full length (human) (UniProt P35869); experiment: co-IP of 35S-labelled in vitro translated protein with AHR-specific antiserum
[6] = molecular target: AH receptor nuclear translocator (ARNT), full length (human) (UniProt P27540); experiment: co-IP (discussion)
[7] = molecular target: AH receptor nuclear translocator (ARNT), full length (human) (UniProt P27540); experiment: co-IP of 35S-labelled in vitro translated protein with ARNT-specific antiserum
MOP3 (human) = MOP3 (human) (UniProt O00327); experiment: assay not described

AH receptor nuclear translocator (ARNT), full length (from UniProt P27540 1-789)
binding (LexAMOP1 (human) [1]): binds | binding (LexAMOP2 (human) [2]): binds | binding (LexAMOP1 (human) [3]): binds | binding (LexAMOP2 (human) [4]): binds | binding [5]: binds

human aryl hydrocarbon receptor (AHR), full length (from UniProt P35869 1-848)
binding [6]: binds | binding [7]: binds

mouse MOP7 (from UniProt Q0VBL6 1-662)
binding (MOP3 (human)): binds
